Assay results reported in PubChem BioAssay AID2685 (National Center for Advancing Translational Sciences (NCATS), 2010).
This is one part of the list. These are further read-outs of the screen, such as a control signal, another cell line or another target. No call is given for them. The list favours compounds with an active or inconclusive main result. The note in brackets gives the kind of curve behind each potency; many fits are weak.

Test: qHTS Assay for Lipid Storage Modulators in Drosophila S3 Cells;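 for cell number change: cells counted by Cell Tracker Red CMTPX staining in the red channel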
Conditions: BODIPY lipid droplet fluorescence, 18-24 h; for cell number change: measured here: cell count max response, cells fed with added oleic acid
How it was run: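 Laser-scanning cytometry quantifies lipid droplet accumulation (500–530 nm total intensity; droplet/cell object ratio) in oleic acid-fed (400 uM added) Drosophila S3 cells treated with a concentration series. 20 uM Triacsin C defined 100% inhibition.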

[1] = measured here: lipid fluorescence (Fed channel) AC50, cells fed with added oleic acid
[2] = measured here: cell number channel AC50, cells fed with added oleic acid

SMILES | cell number change [%] | AC50 [1] | AC50 [2]
c1ccc(-c2nnc(CSc3nnc(-c4ccncc4)n3Cc3ccco3)o2)cc1 | -8.37 | 0.92 µM [rising, partial curve] | –
C=CCn1c(SCCOc2ccc(OC)cc2)nnc1C(C)NC(=O)Cc1ccc(OC)cc1 (stereo not given) | -0.117 | – | –
COc1cc(N=Nc2ccc3ccccc3c2)ccc1O | -11.4 | 18.4 µM [falling, single point] | –
COc1ccc(CNC(=O)Nc2ccc(C)c(C)c2)cc1 | 18.6 | 6.31 µM [rising, single point] | –
CCOc1ccccc1NC(=O)c1cc(=O)c2ccccc2o1 | 10.7 | 0.116 µM [falling, full curve, poor fit] | –
O=C(c1ccccc1)N1CCC(O)(c2cccnc2)CC1 | -2.74 | – | –
CCN(CCO)Cc1cc(=O)oc2c(C)c(C)ccc12 | 4.05 | 0.116 µM [falling, full curve, poor fit] | –
O=C(COC(=O)C1CCC1)NCCc1ccc(Cl)cc1Cl | 15.1 | 18.4 µM [rising, single point] | –
COc1ccc(NC2=CC(=O)CC(c3ccccc3)C2)cc1 (stereo not given) | 4.21 | 0.13 µM [falling, full curve, poor fit] | –
CC(C)N(Cc1cnn(C)c1)Cc1nc(-c2ccc(Cl)cc2)no1 | 19.2 | – | –
O=C(Nc1ccc(F)c(F)c1)C1CCCN1S(=O)(=O)c1ccc(F)cc1 (stereo not given) | 5.46 | 6.51 µM [rising, single point] | –
O=C(N/N=C/c1ccoc1)c1cc(O)cc(O)c1 | -0.293 | – | –
CCN(c1ccccc1)S(=O)(=O)c1ccc(C(=O)NCC(c2cccs2)N(C)C)cc1 (stereo not given) | 99.6 | – | 3.66 µM [rising, full curve]
CCCc1nc2c(c(=O)c3ccccc3n2C)c(=O)n1C1CCCCCC1 | -31.5 | – | 16.4 µM [falling, single point]
COc1cc(C)c(/C=C(\C#N)C(=O)Nc2cccc(C)c2)cc1C(C)C | 11.9 | 0.326 µM [rising, full curve, poor fit] | –
COc1ccc(N2CCN(C(=O)c3ccc4c(c3)CCN4S(=O)(=O)c3ccccc3)CC2)cc1 | 16.8 | – | –
CN(Cc1cnccn1)C(=O)CC1C(=O)NCCN1Cc1cccc(F)c1 (stereo not given) | 8.8 | 16.4 µM [rising, single point] | –
CSCCC(NC(=O)c1ccc(Cl)cc1)C(=O)NC(C)(C)C (stereo not given) | 105 | 0.58 µM [falling, single point] | 16.4 µM [rising, partial curve]
CCOc1ccc(N(CC(=O)Nc2c(C)n(C)n(-c3ccccc3)c2=O)S(=O)(=O)c2ccccc2)cc1 | -5.03 | – | –
CC1CCCC(NC(=O)CCC(=O)NCc2ccccc2)C1C (stereo not given) | -11 | 0.58 µM [rising, full curve] | –
O=C(Cc1ccccc1)c1c[nH]c(C(=O)NCCCn2ccnc2)c1 | -59.8 | 29.1 µM [falling, single point] | 16.4 µM [falling, partial curve, poor fit]
O=C(NCc1ccccc1)C(=O)NCC1OCCN1C(=O)c1ccc(Cl)cc1 (stereo not given) | 15.8 | 0.164 µM [rising, full curve, poor fit] | –

SMILES | cell number change [%] | AC50 [1] | AC50 [2]
O=C(Cn1c2c(c(-c3ccccc3Cl)cc1=O)CCC2)NCC1CCCO1 (stereo not given) | 35.1 | – | 20.6 µM [rising, single point]
COc1ccc(C(=O)COC(=O)c2ccc([N+](=O)[O-])s2)cc1OC | -8.96 | 0.259 µM [rising, full curve, poor fit] | –
CC(CN1CCCC1)OC(=O)c1cccc(F)c1 (stereo not given) | 1.32 | 5.17 µM [rising, full curve] | –
CCN(CC)c1ncnc2sc(C(=O)N3CCN(c4ccc(OC)cc4)CC3)c(C)c12 | – | – | 0.461 µM [rising, single point]
CC(=O)c1cccc(NC(=O)NNC(=O)CCC(=O)Nc2ccc(C)c(C)c2)c1 | 7.81 | – | –
Cc1nc(N2CCCCC2)c2c(C)c(C(=O)Nc3ccc4c(c3)OCCO4)sc2n1 | -23.3 | 11.6 µM [falling, partial curve, poor fit] | –
Cc1cccc(OCC(=O)Nc2ccc3c(c2)OCCO3)c1 | 93.8 | 29.1 µM [rising, single point] | 25.9 µM [rising, single point]
N=C(N)SCc1ccc(Cl)cc1Cl | 17 | 25.9 µM [rising, single point] | –
O=C(Nc1cc(S(=O)(=O)Nc2ccc(Cl)cc2)ccc1N1CCCCC1)c1ccc(F)cc1 | -11.6 | 29.1 µM [falling, single point] | –
CC1=NOC(=O)/C1=C\c1ccc(-c2cccc(Cl)c2)o1 | -56.3 | – | 29.1 µM [falling, single point]
COc1ccc(/C=C(\C#N)C(=O)NCc2ccccc2)cc1O | -16.2 | 29.1 µM [rising, single point] | –
O=C(COC(=O)c1cc(=O)[nH]c2ccccc12)NCc1ccc(F)cc1 | 1.79 | 29.1 µM [rising, single point] | –
COc1ccc2nc(N(CCN(C)C)C(=O)c3ccc4ccccc4c3)sc2c1 | 19.8 | 6.51 µM [rising, partial curve] | –
Cc1ccc(S(=O)(=O)N2[C@@H](c3ccc(F)cc3)C(C(=O)O)=CC[C@H]2c2ccc(C(C)C)cc2)cc1 | -42.4 | 20.6 µM [falling, single point] | 4.11 µM [falling, full curve]
Cc1cccc(OCC2=NS(=O)(=O)c3ccccc3N2)c1 | – | – | 0.461 µM [rising, single point]
Cc1ccnn2cc3c(=O)n(C)c(=O)n(C)c3c12 | -7.79 | – | 1.64 µM [falling, partial curve]
Cc1ccc(S(=O)(=O)Nc2ccc(Br)cc2/C=N/n2cnnc2)cc1 | 43 | – | 29.1 µM [rising, single point]
Cc1cc(NC(=O)CCc2ccc(S(=O)(=O)N3CCOCC3)cc2)n(-c2ccccc2)n1 | – | 20.6 µM [falling, partial curve] | –
C=CCN(C(=O)CCC(=O)Nc1cc(C)on1)C(C(=O)NC1CCCC1)c1ccc(Cl)cc1 (stereo not given) | 10 | 29.1 µM [rising, partial curve, poor fit] | –
CC(=O)Nc1cccc(OCCCOc2ccc([N+](=O)[O-])cc2)c1 | 17.2 | 3.26 µM [rising, partial curve] | –
COc1ccccc1CNCC(c1ccccc1)c1ccccc1 | – | 0.231 µM [falling, full curve, poor fit] | –
COc1cccc(C(=O)NNC(=O)c2cccc(F)c2)c1 | 24 | 6.51 µM [rising, single point] | –

An excerpt from above in order of molar mass, smallest number first:
SMILES | cell number change [%] | AC50 [1] | AC50 [2]
Cc1ccnn2cc3c(=O)n(C)c(=O)n(C)c3c12 | -7.79 | – | 1.64 µM [falling, partial curve]
COc1ccc(CNC(=O)Nc2ccc(C)c(C)c2)cc1 | 18.6 | 6.31 µM [rising, single point] | –
CN(Cc1cnccn1)C(=O)CC1C(=O)NCCN1Cc1cccc(F)c1 (stereo not given) | 8.8 | 16.4 µM [rising, single point] | –
COc1ccc2nc(N(CCN(C)C)C(=O)c3ccc4ccccc4c3)sc2c1 | 19.8 | 6.51 µM [rising, partial curve] | –
C=CCN(C(=O)CCC(=O)Nc1cc(C)on1)C(C(=O)NC1CCCC1)c1ccc(Cl)cc1 (stereo not given) | 10 | 29.1 µM [rising, partial curve, poor fit] | –

Additional records:

SMILES | cell number change [%] | AC50 [1] | AC50 [2]
C=CCNC(=O)COc1c(C)ccc(C)c1C | 52.5 | – | –
OCC[C@@H]1C[C@H](O)[C@@H](O)[C@@]2(OCCCc3ccccc32)O1 | 34.4 | – | 2.31 µM [rising, partial curve, poor fit]
CCCc1nnc(NC(=O)c2c(O)c3c([nH]c2=O)CCCC3)s1 | 3.86 | 7.31 µM [rising, partial curve, poor fit] | –
O=S1(=O)N=C(Nc2ccc(O)cc2)c2ccccc21 | -11.3 | – | –
O=c1[nH]c(-c2ccccn2)cc2ccccc12 | 1.49 | – | 6.51 µM [rising, single point]
O=C(N/N=C/c1ccc([N+](=O)[O-])cc1)c1ccc(COc2ccccc2-c2ccccc2)cc1 | – | 0.58 µM [rising, single point] | –
CCc1ccc(NC(=S)N2CCN(c3cccc(C(F)(F)F)c3)CC2)cc1 | -50.9 | – | 25.9 µM [falling, single point]
CCOC(=O)c1sc(NC(=O)c2ccco2)nc1-c1ccccc1 | -58.8 | – | 29.1 µM [falling, single point]
CC(NC(=S)Nc1ccccc1Cl)C(c1cccs1)N1CCCC1 (stereo not given) | -32.2 | – | 4.61 µM [falling, partial curve, poor fit]
Cc1cc(OCC(O)CN2C(C)CCCC2C)ccc1C(C)C (stereo not given) | -25 | 32.6 µM [falling, partial curve, poor fit] | –
O=C(NCc1cccnc1)c1cccc(S(=O)(=O)N2CCCC2)c1 | -9.52 | 18.4 µM [rising, single point] | –
CN(Cc1ccccc1)C(=O)C(=O)c1cn(CC(=O)N2CCCC2)c2ccccc12 | 10.4 | – | –
COc1ccc(-c2nc(SCc3ccccc3)n(C(=O)c3ccco3)n2)cc1 | -14 | 29.1 µM [falling, single point] | –
Cc1ccc(CC2S/C(=C(/C#N)C(=O)NCc3ccco3)N(c3ccccc3)C2=O)cc1 (stereo not given) | -0.388 | 9.2 µM [rising, partial curve] | –
Cc1ccc(C)c(NS(=O)(=O)c2cc(C(=O)N3CCc4ccccc4C3)ccc2Cl)c1 | 5.44 | – | –
COc1ccccc1C1(CCNS(=O)(=O)c2ccc(C)cc2)CCOC(C(C)C)C1 (stereo not given) | 13.1 | 6.51 µM [falling, single point] | –
Nc1cc(S(=O)(=O)Nc2ccc(Br)cc2)ccc1Cl | -61.6 | 18.4 µM [falling, single point] | 16.4 µM [falling, single point]
CCOc1ccc2[nH]c(=O)c(CN(Cc3ccccc3)C(=O)N3CCCC3)cc2c1 | – | – | 1.3 µM [rising, partial curve]
NNC(=O)c1sccc1OCc1ccc(F)cc1 | -28.9 | – | –
CCS(=O)(=O)c1nc(S(=O)(=O)c2ccc(C)cc2)c(N2CC(C)OC(C)C2)s1 (stereo not given) | -18.3 | 20.6 µM [falling, single point] | –
